Results taken from US20050261260A1, “Combination of a CDK inhibitor and mitoxantrone” (Cyclacel Limited, priority 2002, published 2005).
≈ marks a conversion by molar mass, not a printed value. Read-outs that look alike come from different tables or passages of the source.

Test system: prostate tumor cells (PC-3)
Test: cells
Settings: Homo sapiens, 24 h, read-out: IC50 (concentration listed as 100 % IC50), PC-3

In the case of `CC[C@H](CO)Nc1nc(NCc2ccccc2)c2ncn(C(C)C)c2n1` [Roscovitine, 6-benzylamino-2-[(R)-1-ethyl-2-hydroxyethylamino]-9-isopropylpurine], the IC50 (Table 3, roscovitine 24 h then mitoxantrone 24 h) is reported as 21 µg/mL (≈ 59.2 µM), the IC50 (Table 5, mitoxantrone 24 h then roscovitine 24 h) is reported as 30 µg/mL (≈ 84.6 µM) and the IC50 (Table 7, concurrent 24 h exposure) is reported as 26 µg/mL (≈ 73.4 µM).
